The supplement of paper PMC10060354, “Discovery of a small molecule ligand of FRS2 that inhibits invasion and tumor growth” (Cellular Oncology, 2022)
Single values are uncertain, as repeats are few or missing.

Amino acid sequences for entries named in this document (tags omitted). A change or cut given only in a name is not applied to a line headed by its entry.
UniProt Q96SZ5, whole entry: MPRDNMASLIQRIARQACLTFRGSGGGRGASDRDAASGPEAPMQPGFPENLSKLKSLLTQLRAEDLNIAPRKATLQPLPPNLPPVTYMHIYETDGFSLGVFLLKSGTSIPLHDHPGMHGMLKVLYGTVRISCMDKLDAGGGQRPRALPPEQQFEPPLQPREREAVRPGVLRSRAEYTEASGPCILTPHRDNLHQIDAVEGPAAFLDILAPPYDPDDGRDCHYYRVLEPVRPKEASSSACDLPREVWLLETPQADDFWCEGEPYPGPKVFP
UniProt Q15596: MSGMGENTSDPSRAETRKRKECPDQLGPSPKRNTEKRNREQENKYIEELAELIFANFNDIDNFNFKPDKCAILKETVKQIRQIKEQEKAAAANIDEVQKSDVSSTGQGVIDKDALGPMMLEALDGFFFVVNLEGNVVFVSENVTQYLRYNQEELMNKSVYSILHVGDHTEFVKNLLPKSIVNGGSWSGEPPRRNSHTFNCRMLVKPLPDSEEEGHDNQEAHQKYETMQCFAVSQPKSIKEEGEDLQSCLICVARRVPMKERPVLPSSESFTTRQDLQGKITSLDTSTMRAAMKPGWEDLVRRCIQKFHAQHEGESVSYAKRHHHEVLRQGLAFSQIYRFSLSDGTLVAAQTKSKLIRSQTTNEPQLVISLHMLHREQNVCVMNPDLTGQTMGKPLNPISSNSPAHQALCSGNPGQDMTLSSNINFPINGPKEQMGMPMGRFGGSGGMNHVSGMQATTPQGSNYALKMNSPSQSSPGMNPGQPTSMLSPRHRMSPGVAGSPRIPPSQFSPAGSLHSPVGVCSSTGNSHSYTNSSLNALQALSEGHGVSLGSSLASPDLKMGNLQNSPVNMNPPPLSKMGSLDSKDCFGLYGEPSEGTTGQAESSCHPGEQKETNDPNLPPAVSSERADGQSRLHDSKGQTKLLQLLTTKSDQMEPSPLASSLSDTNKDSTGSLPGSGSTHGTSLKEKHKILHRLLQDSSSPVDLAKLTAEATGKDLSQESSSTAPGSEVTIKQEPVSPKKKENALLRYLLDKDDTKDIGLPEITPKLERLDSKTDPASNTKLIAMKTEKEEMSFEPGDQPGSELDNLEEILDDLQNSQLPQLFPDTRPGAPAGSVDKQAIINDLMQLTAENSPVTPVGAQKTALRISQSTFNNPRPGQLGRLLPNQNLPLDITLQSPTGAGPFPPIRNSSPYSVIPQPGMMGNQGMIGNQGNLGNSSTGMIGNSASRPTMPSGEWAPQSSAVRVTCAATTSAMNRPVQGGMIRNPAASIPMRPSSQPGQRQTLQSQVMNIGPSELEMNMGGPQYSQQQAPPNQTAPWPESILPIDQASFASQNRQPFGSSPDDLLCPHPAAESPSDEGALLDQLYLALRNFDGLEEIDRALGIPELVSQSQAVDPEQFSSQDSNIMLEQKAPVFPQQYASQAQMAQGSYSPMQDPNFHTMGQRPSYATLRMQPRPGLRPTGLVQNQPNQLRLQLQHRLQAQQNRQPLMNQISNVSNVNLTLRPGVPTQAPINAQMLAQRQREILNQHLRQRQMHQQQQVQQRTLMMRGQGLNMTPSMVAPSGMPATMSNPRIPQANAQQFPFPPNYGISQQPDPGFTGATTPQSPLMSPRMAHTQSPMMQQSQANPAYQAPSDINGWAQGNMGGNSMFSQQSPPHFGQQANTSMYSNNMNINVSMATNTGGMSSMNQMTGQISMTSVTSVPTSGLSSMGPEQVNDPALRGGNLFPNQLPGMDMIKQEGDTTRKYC
UniProt A8MWD9, whole entry: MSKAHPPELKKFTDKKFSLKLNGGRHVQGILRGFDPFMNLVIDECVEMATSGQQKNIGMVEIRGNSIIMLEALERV
UniProt Q6ZMR3: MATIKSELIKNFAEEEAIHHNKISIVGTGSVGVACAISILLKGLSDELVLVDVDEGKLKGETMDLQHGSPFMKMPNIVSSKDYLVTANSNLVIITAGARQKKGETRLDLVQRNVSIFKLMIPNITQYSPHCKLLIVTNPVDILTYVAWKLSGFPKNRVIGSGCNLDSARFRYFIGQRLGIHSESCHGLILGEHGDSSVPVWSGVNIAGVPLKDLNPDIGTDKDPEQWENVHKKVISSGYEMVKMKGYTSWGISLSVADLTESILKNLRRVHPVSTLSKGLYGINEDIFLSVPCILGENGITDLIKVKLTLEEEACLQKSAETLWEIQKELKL
UniProt P31946: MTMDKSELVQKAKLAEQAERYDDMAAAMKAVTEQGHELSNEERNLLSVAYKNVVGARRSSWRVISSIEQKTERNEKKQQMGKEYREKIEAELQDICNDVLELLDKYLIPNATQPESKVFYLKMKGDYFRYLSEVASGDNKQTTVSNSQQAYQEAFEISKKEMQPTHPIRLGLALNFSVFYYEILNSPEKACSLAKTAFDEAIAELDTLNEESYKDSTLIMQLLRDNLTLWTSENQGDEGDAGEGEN
UniProt Q16254: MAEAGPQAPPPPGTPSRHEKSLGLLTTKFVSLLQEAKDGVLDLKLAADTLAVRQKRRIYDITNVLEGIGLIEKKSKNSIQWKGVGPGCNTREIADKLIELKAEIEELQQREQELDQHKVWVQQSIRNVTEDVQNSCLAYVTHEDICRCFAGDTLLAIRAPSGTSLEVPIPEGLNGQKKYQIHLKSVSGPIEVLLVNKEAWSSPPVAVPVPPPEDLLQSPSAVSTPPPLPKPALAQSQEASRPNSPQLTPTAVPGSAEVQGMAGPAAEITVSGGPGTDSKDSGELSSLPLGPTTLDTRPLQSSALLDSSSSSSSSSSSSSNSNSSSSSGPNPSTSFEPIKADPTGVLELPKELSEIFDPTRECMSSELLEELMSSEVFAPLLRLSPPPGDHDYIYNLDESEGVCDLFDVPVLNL
UniProt Q8WTW3: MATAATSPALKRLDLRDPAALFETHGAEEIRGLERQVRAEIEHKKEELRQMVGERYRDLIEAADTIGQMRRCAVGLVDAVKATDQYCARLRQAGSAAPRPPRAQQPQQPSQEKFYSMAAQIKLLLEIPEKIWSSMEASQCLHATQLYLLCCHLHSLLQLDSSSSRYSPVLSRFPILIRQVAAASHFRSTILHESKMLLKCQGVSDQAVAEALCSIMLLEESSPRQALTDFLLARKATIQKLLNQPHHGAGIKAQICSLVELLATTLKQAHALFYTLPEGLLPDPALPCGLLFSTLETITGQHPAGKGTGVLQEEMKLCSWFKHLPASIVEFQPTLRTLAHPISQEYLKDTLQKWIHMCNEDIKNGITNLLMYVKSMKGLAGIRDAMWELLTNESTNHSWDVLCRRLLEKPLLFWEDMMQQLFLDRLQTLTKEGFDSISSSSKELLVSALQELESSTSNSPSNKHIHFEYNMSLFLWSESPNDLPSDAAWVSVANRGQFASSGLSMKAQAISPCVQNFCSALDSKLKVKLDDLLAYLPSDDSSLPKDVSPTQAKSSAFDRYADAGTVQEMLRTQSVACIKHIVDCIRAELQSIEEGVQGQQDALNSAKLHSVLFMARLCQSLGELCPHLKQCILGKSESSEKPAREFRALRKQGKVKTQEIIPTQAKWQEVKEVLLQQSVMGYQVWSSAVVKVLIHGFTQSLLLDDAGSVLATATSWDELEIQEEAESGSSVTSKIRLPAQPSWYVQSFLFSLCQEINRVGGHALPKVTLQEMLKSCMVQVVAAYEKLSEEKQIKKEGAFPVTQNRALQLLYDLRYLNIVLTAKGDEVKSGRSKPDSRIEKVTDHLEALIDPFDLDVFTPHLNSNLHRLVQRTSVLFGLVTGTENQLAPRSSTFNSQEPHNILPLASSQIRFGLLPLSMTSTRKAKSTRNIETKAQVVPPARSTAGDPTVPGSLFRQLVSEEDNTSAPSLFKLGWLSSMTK
UniProt A2RU67: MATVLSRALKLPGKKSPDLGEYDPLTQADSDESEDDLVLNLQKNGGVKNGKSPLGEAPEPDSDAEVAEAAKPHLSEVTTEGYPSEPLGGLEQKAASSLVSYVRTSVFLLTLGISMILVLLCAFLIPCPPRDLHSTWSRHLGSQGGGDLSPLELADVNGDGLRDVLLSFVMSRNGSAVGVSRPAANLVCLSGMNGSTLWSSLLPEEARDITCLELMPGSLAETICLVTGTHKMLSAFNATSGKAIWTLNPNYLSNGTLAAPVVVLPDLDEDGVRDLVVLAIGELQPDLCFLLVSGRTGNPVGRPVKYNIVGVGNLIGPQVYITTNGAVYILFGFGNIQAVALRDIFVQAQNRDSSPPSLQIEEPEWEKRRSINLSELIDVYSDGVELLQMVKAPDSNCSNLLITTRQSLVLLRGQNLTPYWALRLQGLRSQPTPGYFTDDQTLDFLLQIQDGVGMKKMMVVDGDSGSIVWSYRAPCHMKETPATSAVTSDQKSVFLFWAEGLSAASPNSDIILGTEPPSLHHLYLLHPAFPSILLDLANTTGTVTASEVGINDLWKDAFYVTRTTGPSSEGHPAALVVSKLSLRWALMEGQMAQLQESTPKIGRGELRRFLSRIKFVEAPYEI
UniProt Q8N201, whole entry: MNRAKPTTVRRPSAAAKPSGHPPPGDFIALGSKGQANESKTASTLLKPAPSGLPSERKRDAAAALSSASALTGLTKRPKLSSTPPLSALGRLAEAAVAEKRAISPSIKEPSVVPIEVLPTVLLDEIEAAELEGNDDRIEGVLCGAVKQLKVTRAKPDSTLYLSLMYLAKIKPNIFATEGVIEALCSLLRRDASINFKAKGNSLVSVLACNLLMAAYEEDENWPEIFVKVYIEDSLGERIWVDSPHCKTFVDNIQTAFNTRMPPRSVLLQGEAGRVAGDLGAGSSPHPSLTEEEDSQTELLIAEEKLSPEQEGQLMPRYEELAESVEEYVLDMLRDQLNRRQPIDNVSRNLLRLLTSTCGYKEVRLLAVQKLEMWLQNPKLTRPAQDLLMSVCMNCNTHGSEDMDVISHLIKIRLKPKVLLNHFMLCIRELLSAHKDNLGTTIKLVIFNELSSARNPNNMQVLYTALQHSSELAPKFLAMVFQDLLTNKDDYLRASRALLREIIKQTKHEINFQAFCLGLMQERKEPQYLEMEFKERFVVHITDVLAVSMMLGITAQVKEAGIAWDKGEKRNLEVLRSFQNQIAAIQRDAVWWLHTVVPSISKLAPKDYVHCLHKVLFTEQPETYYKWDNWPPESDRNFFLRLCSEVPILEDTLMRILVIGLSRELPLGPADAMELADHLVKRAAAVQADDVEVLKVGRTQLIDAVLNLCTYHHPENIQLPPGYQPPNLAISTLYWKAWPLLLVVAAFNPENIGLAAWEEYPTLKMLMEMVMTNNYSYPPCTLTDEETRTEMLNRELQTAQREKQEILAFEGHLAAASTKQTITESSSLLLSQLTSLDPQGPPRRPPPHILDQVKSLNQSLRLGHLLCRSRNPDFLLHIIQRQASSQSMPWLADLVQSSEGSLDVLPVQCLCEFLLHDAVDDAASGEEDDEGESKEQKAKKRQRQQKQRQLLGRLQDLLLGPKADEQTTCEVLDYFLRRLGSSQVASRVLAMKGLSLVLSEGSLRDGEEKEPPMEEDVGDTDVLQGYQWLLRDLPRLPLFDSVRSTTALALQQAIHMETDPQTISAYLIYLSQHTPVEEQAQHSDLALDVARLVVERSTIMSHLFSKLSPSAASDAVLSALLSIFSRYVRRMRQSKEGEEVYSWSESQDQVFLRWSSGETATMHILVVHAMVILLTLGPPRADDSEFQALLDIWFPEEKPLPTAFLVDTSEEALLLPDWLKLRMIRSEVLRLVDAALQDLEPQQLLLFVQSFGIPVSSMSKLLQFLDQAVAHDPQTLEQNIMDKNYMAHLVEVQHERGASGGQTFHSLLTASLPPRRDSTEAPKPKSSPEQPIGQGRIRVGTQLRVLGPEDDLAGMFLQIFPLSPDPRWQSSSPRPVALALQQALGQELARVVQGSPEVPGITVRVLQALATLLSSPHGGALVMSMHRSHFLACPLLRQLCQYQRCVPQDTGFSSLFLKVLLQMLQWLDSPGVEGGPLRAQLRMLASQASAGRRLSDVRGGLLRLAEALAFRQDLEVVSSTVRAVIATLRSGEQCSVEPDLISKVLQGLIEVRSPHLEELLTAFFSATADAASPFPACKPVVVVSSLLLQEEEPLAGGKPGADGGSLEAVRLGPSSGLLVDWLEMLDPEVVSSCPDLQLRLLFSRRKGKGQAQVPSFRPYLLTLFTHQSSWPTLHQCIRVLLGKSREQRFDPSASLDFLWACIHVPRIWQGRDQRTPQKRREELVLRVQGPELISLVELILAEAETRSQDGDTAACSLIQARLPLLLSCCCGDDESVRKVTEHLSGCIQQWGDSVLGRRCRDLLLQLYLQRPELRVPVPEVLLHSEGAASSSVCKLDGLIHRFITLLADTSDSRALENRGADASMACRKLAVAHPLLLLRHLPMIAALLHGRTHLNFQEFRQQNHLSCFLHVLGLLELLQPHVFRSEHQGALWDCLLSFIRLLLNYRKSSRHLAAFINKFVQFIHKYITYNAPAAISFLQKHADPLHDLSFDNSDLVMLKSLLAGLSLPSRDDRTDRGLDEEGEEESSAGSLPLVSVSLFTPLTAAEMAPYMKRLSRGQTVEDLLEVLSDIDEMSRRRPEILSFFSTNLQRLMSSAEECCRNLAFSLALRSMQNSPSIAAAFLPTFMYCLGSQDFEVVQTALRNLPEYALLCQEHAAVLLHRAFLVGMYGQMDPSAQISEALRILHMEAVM

Compound: [O-][N+](C(C1=C(C(O)=C2)NC(C(C=C3)=CC=C3Cl)C4C1C=CC4)=C2Cl)=O
Assay: melting temperature shift (compound 7 minus DMSO); higher = compound stabilises the protein
Settings: 10 µM
Procedure: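 Thermal proteome profiling (TMT mass spectrometry) in intact DAOY medulloblastoma cells or DAOY lysates treated with 10 µM compound 7 or DMSO, heated at 10 temperatures from 40.5 to 73.8 °C for 3 min. Melting curves were fitted with the Bioconductor TPP package, and the melting point difference between compound and vehicle is reported per protein (single curve per condition).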

[1] = system: DAOY cell lysate, treatment time: 20 min, 4 °C
[2] = system: intact DAOY cells, treatment time: 90 min, 37 °C

Target	melting temperature shift [1] [°C]	melting temperature shift [2] [°C]
ADO (UniProt Q96SZ5)	0.214	0.915
NIPBL (UniProt Q6KC79)	1.13	-2.98
MRPL13 (UniProt Q9BYD1)	-0.827	-2.49
UniProt Q12929	0.988	-0.932
UniProt P21127	-0.284	2.03
CLPP (UniProt Q16740)	0.612	-0.276
NXF1 (UniProt Q9UBU9)	0.186	1.73
GLRX3 (UniProt O76003)	-0.203	0.158
TRAPPC6B (UniProt Q86SZ2)	-0.349	1.31
TMEM109 (UniProt Q9BVC6)	3.6	–
USE1 (UniProt Q9NZ43)	1.91	-0.00681
SF3A3 (UniProt Q12874)	0.273	0.458
UniProt Q8WXX7	1.24	–
EPHA5 (UniProt P54756)	–	0.397
PTPN12 (UniProt Q05209)	-0.0787	0.0269
CBFB (UniProt Q13951)	-0.243	0.429
GFPT1 (UniProt Q06210)	-0.548	0.411
ATP1B1 (UniProt P05026)	2.21	-0.568
PES1 (UniProt O00541)	1.34	0.869
ROCK1 (UniProt Q13464)	-0.17	0.0317
BUB1B (UniProt O60566)	-0.0481	-0.64
MCCC2 (UniProt Q9HCC0)	1.37	1.23
EFTUD2 (UniProt Q15029)	-0.128	2.56

Target	melting temperature shift [1] [°C]	melting temperature shift [2] [°C]
DLG1 (UniProt Q12959)	1.05	0.0243
TSTA3 (UniProt Q13630)	-0.151	-0.014
C17ORF62 (UniProt Q9BQA9)	1.97	-2.02
EPS15 (UniProt P42566)	-0.706	0.53
TPM3 (UniProt P06753)	-0.843	–
NCOA2 (UniProt Q15596)	2.21	–
UniProt Q9H9G7	1.06	0.499
TSC2 (UniProt P49815)	0.231	0.148
BTBD10 (UniProt Q9BSF8)	-0.313	–
UniProt P19087	–	0.268
IFI16 (UniProt Q16666)	0.788	-0.245
ARL2BP (UniProt Q9Y2Y0)	-1.14	–
TNPO3 (UniProt Q9Y5L0)	-0.721	-0.448
HSPB8 (UniProt Q9UJY1)	–	2.67
PRKD2 (UniProt Q9BZL6)	0.0239	–
LDHB (UniProt P07195)	-0.296	-0.6
AHNAK (UniProt Q09666)	0.928	–
NOL6 (UniProt Q9H6R4)	0.369	–
ENO1 (UniProt P06733)	-0.32	-0.406
UniProt Q9Y2U5	-1.22	-0.711
SUGT1 (UniProt Q9Y2Z0)	-1.24	0.797
UniProt Q9UM01	–	-1.8
MTHFS (UniProt P49914)	0.295	0.49

As entered above.
melting temperature shift [1] [°C], ENO1 (UniProt P06733) reads -0.32
melting temperature shift [2] [°C], IFI16 (UniProt Q16666) reads -0.245
melting temperature shift [1] [°C], AHNAK (UniProt Q09666) reads 0.928
melting temperature shift [2] [°C], HSPB8 (UniProt Q9UJY1) reads 2.67
melting temperature shift [2] [°C], DLG1 (UniProt Q12959) reads 0.0243
melting temperature shift [1] [°C], SUGT1 (UniProt Q9Y2Z0) reads -1.24
melting temperature shift [1] [°C], ARL2BP (UniProt Q9Y2Y0) reads -1.14

Continuation:

Target	melting temperature shift [1] [°C]	melting temperature shift [2] [°C]
ABLIM1 (UniProt O14639)	–	-1.44
P0DMV9 (UniProt P0DMV8)	-0.421	-0.126
UniProt A8MWD9	–	-0.839
SYNJ2 (UniProt O15056)	-0.388	-0.216
DTX2 (UniProt Q86UW9)	–	1.28
EIF3A (UniProt Q14152)	-0.535	-0.0908
NUP210 (UniProt Q8TEM1)	0.947	-0.00416
DCAF13 (UniProt Q9NV06)	-0.287	-0.991
UniProt Q6ZMR3	–	-1.73
POLDIP2 (UniProt Q9Y2S7)	0.783	-0.9
YWHAB (UniProt P31946)	-0.698	0.584
ACP1 (UniProt P24666)	-0.473	0.744
POR (UniProt P16435)	0.55	-0.337
SLC25A4 (UniProt P12235)	2.76	0.155
UniProt O95873	-1.29	–
COPS4 (UniProt Q9BT78)	-0.555	-0.0254
NCK1 (UniProt P16333)	-0.353	0.968
CHMP2B (UniProt Q9UQN3)	0.771	-1.02
UniProt Q13506	0.273	–
COPB2 (UniProt P35606)	-0.388	0.0865
RRP12 (UniProt Q5JTH9)	-0.562	1.18
PPA2 (UniProt Q9H2U2)	-0.146	-1.62
UniProt Q8IZN3	-0.517	–

Target	melting temperature shift [1] [°C]	melting temperature shift [2] [°C]
TNIK (UniProt Q9UKE5)	2.84	-0.124
IRAK4 (UniProt Q9NWZ3)	–	0.712
UniProt P53803	2.21	0.141
CAST (UniProt P20810)	-2.63	–
POLR2H (UniProt P52434)	-0.351	0.249
UniProt P00749	0.164	-0.114
RALGAPB (UniProt Q86X10)	0.545	1.66
PDCL3 (UniProt Q9H2J4)	-1.14	0.152
UniProt Q9H0R3	1.9	–
LSM7 (UniProt Q9UK45)	1.57	0.709
UniProt Q9UIF9	-1.73	–
HNRNPA0 (UniProt Q13151)	1.78	-1.09
ANKMY2 (UniProt Q8IV38)	-0.583	0.0288
TRIP10 (UniProt Q15642)	-0.496	-0.481
MYH14 (UniProt Q7Z406)	-0.638	0.803
MAVS (UniProt Q7Z434)	1.33	0.607
SLC25A6 (UniProt P12236)	2.37	1.39
LMF2 (UniProt Q9BU23)	–	-0.966
REL (UniProt Q04864)	-1.37	–
NT5C3A (UniProt Q9H0P0)	-0.13	0.276
GATAD2B (UniProt Q8WXI9)	0.814	-0.216
TYW3 (UniProt Q6IPR3)	-1.52	–
MTPAP (UniProt Q9NVV4)	-0.538	–

Target	melting temperature shift [1] [°C]	melting temperature shift [2] [°C]
PROSER2 (UniProt Q86WR7)	-1.58	-0.653
GPKOW (UniProt Q92917)	0.013	-1.98
ABCC1 (UniProt P33527)	0.342	-1.26
UniProt Q96RT6	–	-0.113
RCC2 (UniProt Q9P258)	-0.396	0.0142
UniProt Q96T21	–	0.0765
E2F4 (UniProt Q16254)	-0.927	-0.634
COG1 (UniProt Q8WTW3)	-1.2	-0.585
MAEA (UniProt Q7L5Y9)	-1.32	-2.89
SRSF11 (UniProt Q05519)	0.153	-0.493
UniProt P05090	1.83	–
GPR107 (UniProt Q5VW38)	1.3	0.826
SSR1 (UniProt P43307)	1.19	-1.06
UniProt P11277	–	0.7
MEPCE (UniProt Q7L2J0)	-0.797	0.593
FAM234B (UniProt A2RU67)	–	6.48
TFAM (UniProt Q00059)	2.79	0.14
UniProt Q8N201	0.0367	-0.979
WDR62 (UniProt O43379)	-0.908	2.69
UniProt P07737	-0.333	-0.243
UniProt Q9BQT8	1.4	–
